For the test, the target named is T1, Cul4 (S. pombe) (UniProt O14122).
T1 sequence: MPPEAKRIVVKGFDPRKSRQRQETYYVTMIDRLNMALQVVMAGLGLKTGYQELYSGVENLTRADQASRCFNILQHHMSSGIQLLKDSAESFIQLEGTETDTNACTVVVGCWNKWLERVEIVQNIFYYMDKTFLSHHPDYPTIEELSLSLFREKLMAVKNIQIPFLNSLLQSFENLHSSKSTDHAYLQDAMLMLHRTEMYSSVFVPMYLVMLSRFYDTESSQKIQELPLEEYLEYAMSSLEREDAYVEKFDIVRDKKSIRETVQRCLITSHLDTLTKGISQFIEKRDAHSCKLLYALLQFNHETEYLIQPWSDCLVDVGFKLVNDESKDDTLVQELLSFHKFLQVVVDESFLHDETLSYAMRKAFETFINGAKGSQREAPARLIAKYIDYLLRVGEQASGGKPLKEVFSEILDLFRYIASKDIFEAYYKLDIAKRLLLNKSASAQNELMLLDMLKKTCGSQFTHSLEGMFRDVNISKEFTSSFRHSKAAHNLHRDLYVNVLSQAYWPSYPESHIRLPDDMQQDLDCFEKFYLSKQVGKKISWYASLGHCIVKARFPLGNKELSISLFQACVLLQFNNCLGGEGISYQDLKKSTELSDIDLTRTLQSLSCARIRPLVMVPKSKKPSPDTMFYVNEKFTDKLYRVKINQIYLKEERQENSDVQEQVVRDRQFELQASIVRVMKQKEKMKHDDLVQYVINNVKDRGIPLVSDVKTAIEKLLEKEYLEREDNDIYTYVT
The test is described as follows: two-hybrid; targeted yeast two-hybrid, GAL4 binding domain and activation domain fusions (Clontech Matchmaker system); interaction read as growth on -Leu, -Trp, -His, -Ade plates.

These are yes or no findings as the source states them, for the method shown.

With “zinc finger domain of Raf2 alone (S. pombe) (domain or fragment)”, the binding result is “no binding”. Turning to “RFTS domain of Raf2 alone (from UniProt O74560) (domain or fragment)”, the binding result is recorded as “no binding”.

The values above are taken from publication PMC4121317.
